# This continues a long series; more values of the same kind are listed elsewhere.
# Test system: distal small bowel gene expression
# Experiment: RNA sequencing / transcriptional analysis of small bowel 56 days after ICR (2′-FL signature response)
# Type: in vivo, mouse
# Excerpt: Luminal small bowel contents were expressed into AllProtect Tissue Reagent (Qiagen Inc, CA). Bacterial DNA was extracted using the AllPrep DNA/RNA Mini Kit (Qiagen Inc, CA), according to kit instructions and prior to sequencing (described below). Small bowel tissue samples for RNA were placed into RNA Later (Life Technologies, NY). RNA extraction was accomplished following Qiagen RNeasy Plus Kit instruction (Qiagen Inc, CA). All nucleic acid samples were then stored at -80 Celsius until sequenced (described below). Transcriptional analysis was carried out on resected and harvested small bowel samples obtained from operated mice taken to 8 weeks. Murine RNA sequencing libraries were prepared from approximately 1.5 μg RNA using the TruSeq RNA Sample Preparation Kit (Illumina, Calif.) and sequenced using the HiSeq 2000 Sequencing System (Illumina, Calif.) with single-end 50 bp reads. Following removal of primers and barcodes, sequences were aligned to the mm10 genome using reference annotations from UCSC (Rosenbloom et al. (2015) Nucleic acids research 43: […]-681) (n=36,186 entities). Aligned reads were quantified and used to compute reads per kilobase per million mapped reads (RPKM); raw counts were then normalized using the DESeq algorithm and each harvested sample was baselined to its own resected sample. A filter was applied to the data, requiring at least three reads in all samples of at least one of the four experimental conditions (n=14,489 entities). The data discussed in this publication have been deposited in NCBI's Gene Expression Omnibus and are accessible through NCBI Gene Expression Omnibus (GEO) Series accession number GSE72590. Edgar et al. (2002) Nucleic acids research 30: 207-210. In order to characterize the impact of 2'-FL supplementation while accounting for the effect of ileoecal resection, a t-test was applied between resected and harvested samples within control and experimental animals. Significance was set at a p-value of ≤0.05 and a fold change of 3, which generated 2,576 differentially regulated entities across two comparisons. Gene set unions and intersections of the control and experimental gene sets were identified through Venn diagrams. From the master list, the gene list specific to animals supplemented with 2'-FL were removed in order to identify genes differentially regulated only by ICR (n=546 entities); this gene set characterizes the adaptive response. Further, the 2'-FL response (n=2,030 entities) was identified by removing the adaptive response signature described above from the master list, leaving only genes regulated by 2'-FL supplementation after ICR which were not found in the non-supplemented adaptive response. Heatmaps were generated using hierarchical clustering with the Pearson's Centered distance metric and the average linkage rule; both entities and samples were clustered. All genomic analyses described above were performed in Strand NGS (Strand Life Sciences, CA). Gene list functional enrichment was initially discovered using ToppFun, a member of the ToppGene Suite. Chen et al. (2009) Nucleic acids research 37: […]-311. No statistical correction was selected. Gene lists were further analyzed using ClueGO, a plugin for Cytoscape designed to decipher functionally grouped gene ontology and pathway annotation networks. Bindea et al. (2009) Bioinformatics 25: 1091-1093. At the time of data analysis, the annotation files were updated from sources to Jan. 1, 2015. “GO Term Fusion” was enabled to manage ontologic term redundancy and network specificity was set to medium. Results were restricted to pathways with p≤0.05 using Benjamini-Hochberg correction and Kappa scoring was set to 0.4. Biocyc annotations were assigned a rectangle, gene ontology biologic processes were assigned an ellipse, and […] annotations were assigned a diamond shape. No meaning was assigned to size or color. […]
smiles,measurement,setting,value
"C[C@@H]1O[C@@H](O[C@H]2[C@H](O[C@H]3[C@H](O)[C@@H](O)C(O)O[C@@H]3CO)O[C@H](CO)[C@H](O)[C@@H]2O)[C@@H](O)[C@H](O)[C@@H]1O (stereo partly drawn) [2′-FL, 2′-fucosyllactose]",Fold Change (Pre- to Post-op),gene Col13a1,−5.478
same,Fold Change (Pre- to Post-op),gene Col15a1,−3.722
same,Fold Change (Pre- to Post-op),gene Col23a1,−5.39
same,Fold Change (Pre- to Post-op),gene Col28a1,−3.203
same,Fold Change (Pre- to Post-op),gene Colq,−5.085
same,Fold Change (Pre- to Post-op),gene Commd3,3.032
same,Fold Change (Pre- to Post-op),gene Copa,−3.081
same,Fold Change (Pre- to Post-op),gene Coro2b,−8.663
same,Fold Change (Pre- to Post-op),gene Cp,−3.369
same,Fold Change (Pre- to Post-op),gene Cpeb4,−7.155
same,Fold Change (Pre- to Post-op),gene Cped1,−3.329
same,Fold Change (Pre- to Post-op),gene Cplx1,−5.116
same,Fold Change (Pre- to Post-op),gene Cpm,−4.795
same,Fold Change (Pre- to Post-op),gene Cpne4,−4.107
same,Fold Change (Pre- to Post-op),gene Cpt1a,−3.075
same,Fold Change (Pre- to Post-op),gene Cramp1l,−3.07
same,Fold Change (Pre- to Post-op),gene Creb3l1,−5.494
same,Fold Change (Pre- to Post-op),gene Creb3l2,−3.832
same,Fold Change (Pre- to Post-op),gene Crebbp,−7.823
same,Fold Change (Pre- to Post-op),gene Crispld2,−3.162
same,Fold Change (Pre- to Post-op),gene Crtc3,−5.019
same,Fold Change (Pre- to Post-op),gene Csf1,−3.627
same,Fold Change (Pre- to Post-op),gene Csf1r,−6.703
same,Fold Change (Pre- to Post-op),gene Csf2rb2,−4.41
same,Fold Change (Pre- to Post-op),gene Cspg4,−3.052
same,Fold Change (Pre- to Post-op),gene Ctc1,−3.669
same,Fold Change (Pre- to Post-op),gene Ctif,−4.689
same,Fold Change (Pre- to Post-op),gene Ctnnd1,−3.227
same,Fold Change (Pre- to Post-op),gene Ctnnd2,−3.844
same,Fold Change (Pre- to Post-op),gene Cul7,−5.784
same,Fold Change (Pre- to Post-op),gene Cul9,−3.897
same,Fold Change (Pre- to Post-op),gene Cux2,−3.623
same,Fold Change (Pre- to Post-op),gene Cyfip2,−7.683
same,Fold Change (Pre- to Post-op),gene Cyp2e1,−6.806
same,Fold Change (Pre- to Post-op),gene Cyyr1,−3.918
same,Fold Change (Pre- to Post-op),gene D8Ertd82e,−5.422
same,Fold Change (Pre- to Post-op),gene D10Bwg1379e,−5.781
same,Fold Change (Pre- to Post-op),gene D430019H16Rik,−4.877
same,Fold Change (Pre- to Post-op),gene D630003M21Rik,−3.987
same,Fold Change (Pre- to Post-op),gene D930015E06Rik,−5.945
same,Fold Change (Pre- to Post-op),gene Daam2,−6.254
same,Fold Change (Pre- to Post-op),gene Dab2ip,−3.611
same,Fold Change (Pre- to Post-op),gene Dag1,−4.424
same,Fold Change (Pre- to Post-op),gene Dapk1,−3.851
same,Fold Change (Pre- to Post-op),gene Darc,−3.371
same,Fold Change (Pre- to Post-op),gene Dbh,−6.587
same,Fold Change (Pre- to Post-op),gene Dchs1,−7.422
same,Fold Change (Pre- to Post-op),gene Dclk1,−3.24
same,Fold Change (Pre- to Post-op),gene Ddr2,−3.873
same,Fold Change (Pre- to Post-op),gene Dennd1a,−3.174
same,Fold Change (Pre- to Post-op),gene Dennd1c,−3.312
same,Fold Change (Pre- to Post-op),gene Dhdh,−3.285
same,Fold Change (Pre- to Post-op),gene Dhx8,−3.474
same,Fold Change (Pre- to Post-op),gene Dhx9,−6.337
same,Fold Change (Pre- to Post-op),gene Dhx34,−3.353
same,Fold Change (Pre- to Post-op),gene Dip2c,−3.396
same,Fold Change (Pre- to Post-op),gene Disp2,−4.889
same,Fold Change (Pre- to Post-op),gene Dlc1,−5.546
same,Fold Change (Pre- to Post-op),gene Dlg5,−3.613
same,Fold Change (Pre- to Post-op),gene Dlgap3,−3.499
same,Fold Change (Pre- to Post-op),gene Dmp1,−3.697
same,Fold Change (Pre- to Post-op),gene Dmtn,−3.126
same,Fold Change (Pre- to Post-op),gene Dmwd,−4.25
same,Fold Change (Pre- to Post-op),gene Dnah8,−4.012
same,Fold Change (Pre- to Post-op),gene Dnajc16,−4.169
same,Fold Change (Pre- to Post-op),gene Dnase1l3,−4.068
same,Fold Change (Pre- to Post-op),gene Dnm2,−3.376
same,Fold Change (Pre- to Post-op),gene Dnmbp,−6.6
same,Fold Change (Pre- to Post-op),gene Dnmt3a,−4.121
same,Fold Change (Pre- to Post-op),gene Dock1,−3.181
same,Fold Change (Pre- to Post-op),gene Dock2,−4.983
same,Fold Change (Pre- to Post-op),gene Dock5,−3.284
same,Fold Change (Pre- to Post-op),gene Dopey2,−3.474
same,Fold Change (Pre- to Post-op),gene Dot1l,−4.032
same,Fold Change (Pre- to Post-op),gene Dpp6,−8.042
same,Fold Change (Pre- to Post-op),gene Dpp9,−3.033
same,Fold Change (Pre- to Post-op),gene Dpysl3,−6.419
same,Fold Change (Pre- to Post-op),gene Drosha,−4.216
same,Fold Change (Pre- to Post-op),gene Dsp,−3.496
same,Fold Change (Pre- to Post-op),gene Dst,−3.608
same,Fold Change (Pre- to Post-op),gene Dtx1,−5.117
same,Fold Change (Pre- to Post-op),gene Duox1,−4.169
same,Fold Change (Pre- to Post-op),gene Dusp2,−4.787
same,Fold Change (Pre- to Post-op),gene Dvl3,−4.445
same,Fold Change (Pre- to Post-op),gene Dysf,−4.139
same,Fold Change (Pre- to Post-op),gene Dzip1,−3.169
same,Fold Change (Pre- to Post-op),gene Ebf3,−5.085
same,Fold Change (Pre- to Post-op),gene Ece1,−4.106
same,Fold Change (Pre- to Post-op),gene Eef2k,−3.648
same,Fold Change (Pre- to Post-op),gene Efna5,−3.069
same,Fold Change (Pre- to Post-op),gene Ehd3,−3.327
same,Fold Change (Pre- to Post-op),gene Eif4ebp2,−3.825
same,Fold Change (Pre- to Post-op),gene Eif4g1,−3.375
same,Fold Change (Pre- to Post-op),gene Elac2,−3.024
same,Fold Change (Pre- to Post-op),gene Elavl3,−4.902
same,Fold Change (Pre- to Post-op),gene Elavl4,−7.496
same,Fold Change (Pre- to Post-op),gene Elf4,−3.981
same,Fold Change (Pre- to Post-op),gene Elk3,−3.185
same,Fold Change (Pre- to Post-op),gene Elmsan1,−3.82
same,Fold Change (Pre- to Post-op),gene Emilin1,−3.789
same,Fold Change (Pre- to Post-op),gene Eml2,−3.933
same,Fold Change (Pre- to Post-op),gene Eml6,−4.171
same,Fold Change (Pre- to Post-op),gene Eng,−3.419
same,Fold Change (Pre- to Post-op),gene Enpp6,−3.441
same,Fold Change (Pre- to Post-op),gene Epas1,−4.457
same,Fold Change (Pre- to Post-op),gene Epb4.1l3,−4.333
same,Fold Change (Pre- to Post-op),gene Ephb2,−3.149
same,Fold Change (Pre- to Post-op),gene Eppk1,−3.024
same,Fold Change (Pre- to Post-op),gene Erbb3,−7.3
same,Fold Change (Pre- to Post-op),gene Erc1,−3.129
same,Fold Change (Pre- to Post-op),gene Ercc2,−3.182
same,Fold Change (Pre- to Post-op),gene Ern1,−3.525
same,Fold Change (Pre- to Post-op),gene Ern2,−4.086
same,Fold Change (Pre- to Post-op),gene Esrp2,−3.224
same,Fold Change (Pre- to Post-op),gene Esyt1,−4.748
same,Fold Change (Pre- to Post-op),gene Etl4,−3.372
same,Fold Change (Pre- to Post-op),gene Ets1,−3.789
same,Fold Change (Pre- to Post-op),gene Extl3,−3.308
same,Fold Change (Pre- to Post-op),gene Eya1,−3.606
same,Fold Change (Pre- to Post-op),gene F830016B08Rik,−4.1309

# — patent publication US10857167B2, “Use of oligosaccharide compositions to enhance weight gain” (Children's Hospital Medical Center, priority 2015, dated 2020)
